This experiment has as its target adenomatous polyposis coli (APC) (UniProt Q61315). The experiment in a line: co-IP.

Amino acid sequences for entries named in this document (tags omitted).
UniProt Q61315: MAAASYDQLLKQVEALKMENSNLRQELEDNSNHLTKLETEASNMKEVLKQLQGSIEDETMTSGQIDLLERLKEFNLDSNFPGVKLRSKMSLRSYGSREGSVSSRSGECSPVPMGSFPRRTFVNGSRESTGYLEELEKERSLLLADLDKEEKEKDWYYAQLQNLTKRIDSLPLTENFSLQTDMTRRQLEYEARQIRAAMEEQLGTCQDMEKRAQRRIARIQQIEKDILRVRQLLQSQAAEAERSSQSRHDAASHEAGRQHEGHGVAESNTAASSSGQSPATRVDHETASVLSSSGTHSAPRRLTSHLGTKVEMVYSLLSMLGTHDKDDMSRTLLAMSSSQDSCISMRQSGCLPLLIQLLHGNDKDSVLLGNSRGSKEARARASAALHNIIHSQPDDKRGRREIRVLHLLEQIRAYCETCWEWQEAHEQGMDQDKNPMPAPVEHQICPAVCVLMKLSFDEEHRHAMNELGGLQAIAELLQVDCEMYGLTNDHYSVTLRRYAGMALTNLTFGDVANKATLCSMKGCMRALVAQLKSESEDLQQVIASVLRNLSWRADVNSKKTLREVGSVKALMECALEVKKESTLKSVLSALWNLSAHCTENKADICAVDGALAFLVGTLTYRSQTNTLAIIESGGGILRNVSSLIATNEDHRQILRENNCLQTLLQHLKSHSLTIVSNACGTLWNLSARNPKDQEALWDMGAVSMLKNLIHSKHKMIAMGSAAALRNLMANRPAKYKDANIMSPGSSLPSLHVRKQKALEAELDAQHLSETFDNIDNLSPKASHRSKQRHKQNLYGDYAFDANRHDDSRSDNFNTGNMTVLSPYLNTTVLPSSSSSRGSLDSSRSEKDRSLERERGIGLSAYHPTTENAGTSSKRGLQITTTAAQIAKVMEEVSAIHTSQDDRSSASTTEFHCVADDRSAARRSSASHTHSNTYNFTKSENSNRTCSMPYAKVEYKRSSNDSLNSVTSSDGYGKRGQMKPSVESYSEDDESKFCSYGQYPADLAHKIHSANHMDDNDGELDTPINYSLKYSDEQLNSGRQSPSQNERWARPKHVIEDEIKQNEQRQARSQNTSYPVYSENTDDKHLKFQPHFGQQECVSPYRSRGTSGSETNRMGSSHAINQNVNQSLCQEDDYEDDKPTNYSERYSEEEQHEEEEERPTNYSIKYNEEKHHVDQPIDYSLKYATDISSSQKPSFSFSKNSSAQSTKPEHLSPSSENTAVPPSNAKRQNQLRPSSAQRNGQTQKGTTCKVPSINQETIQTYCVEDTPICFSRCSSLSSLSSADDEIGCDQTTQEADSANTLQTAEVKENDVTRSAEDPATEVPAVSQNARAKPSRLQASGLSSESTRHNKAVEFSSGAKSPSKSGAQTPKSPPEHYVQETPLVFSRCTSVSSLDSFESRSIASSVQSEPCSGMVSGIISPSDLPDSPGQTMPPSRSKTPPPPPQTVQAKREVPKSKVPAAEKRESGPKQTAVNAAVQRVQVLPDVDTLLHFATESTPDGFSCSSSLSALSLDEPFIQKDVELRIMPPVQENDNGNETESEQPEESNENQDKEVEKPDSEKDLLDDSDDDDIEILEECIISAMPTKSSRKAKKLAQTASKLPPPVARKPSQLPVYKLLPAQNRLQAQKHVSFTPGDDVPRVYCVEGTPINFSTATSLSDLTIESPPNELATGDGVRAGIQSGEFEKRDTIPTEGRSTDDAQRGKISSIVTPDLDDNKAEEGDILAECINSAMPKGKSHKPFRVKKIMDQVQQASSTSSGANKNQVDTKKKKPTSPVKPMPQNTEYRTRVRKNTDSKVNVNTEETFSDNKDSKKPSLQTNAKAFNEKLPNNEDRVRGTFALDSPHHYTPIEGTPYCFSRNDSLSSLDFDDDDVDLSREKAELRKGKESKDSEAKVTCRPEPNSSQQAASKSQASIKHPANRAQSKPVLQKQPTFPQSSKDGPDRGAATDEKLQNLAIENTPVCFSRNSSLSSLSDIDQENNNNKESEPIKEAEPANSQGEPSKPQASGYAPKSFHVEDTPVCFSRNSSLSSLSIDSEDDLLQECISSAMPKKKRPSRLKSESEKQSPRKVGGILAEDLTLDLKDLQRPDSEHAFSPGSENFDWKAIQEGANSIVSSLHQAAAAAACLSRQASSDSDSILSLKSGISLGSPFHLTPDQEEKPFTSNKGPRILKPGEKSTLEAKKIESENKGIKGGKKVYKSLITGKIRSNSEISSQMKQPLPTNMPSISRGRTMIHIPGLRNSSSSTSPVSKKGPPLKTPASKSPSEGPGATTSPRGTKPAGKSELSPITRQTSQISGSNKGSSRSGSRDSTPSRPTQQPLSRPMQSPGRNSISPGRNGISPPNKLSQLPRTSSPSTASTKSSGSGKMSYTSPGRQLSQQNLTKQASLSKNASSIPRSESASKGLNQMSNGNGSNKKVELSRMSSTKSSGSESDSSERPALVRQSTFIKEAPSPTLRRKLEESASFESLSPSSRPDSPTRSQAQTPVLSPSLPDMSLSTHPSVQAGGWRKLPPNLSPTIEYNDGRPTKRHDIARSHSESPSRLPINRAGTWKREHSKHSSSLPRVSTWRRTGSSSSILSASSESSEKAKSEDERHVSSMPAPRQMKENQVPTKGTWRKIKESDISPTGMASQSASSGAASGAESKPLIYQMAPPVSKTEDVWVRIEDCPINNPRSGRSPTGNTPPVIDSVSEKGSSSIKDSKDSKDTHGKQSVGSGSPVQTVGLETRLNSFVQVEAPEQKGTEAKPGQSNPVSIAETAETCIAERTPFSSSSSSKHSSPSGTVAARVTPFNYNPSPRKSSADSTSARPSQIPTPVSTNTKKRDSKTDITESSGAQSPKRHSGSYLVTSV
UniProt Q3TSG4: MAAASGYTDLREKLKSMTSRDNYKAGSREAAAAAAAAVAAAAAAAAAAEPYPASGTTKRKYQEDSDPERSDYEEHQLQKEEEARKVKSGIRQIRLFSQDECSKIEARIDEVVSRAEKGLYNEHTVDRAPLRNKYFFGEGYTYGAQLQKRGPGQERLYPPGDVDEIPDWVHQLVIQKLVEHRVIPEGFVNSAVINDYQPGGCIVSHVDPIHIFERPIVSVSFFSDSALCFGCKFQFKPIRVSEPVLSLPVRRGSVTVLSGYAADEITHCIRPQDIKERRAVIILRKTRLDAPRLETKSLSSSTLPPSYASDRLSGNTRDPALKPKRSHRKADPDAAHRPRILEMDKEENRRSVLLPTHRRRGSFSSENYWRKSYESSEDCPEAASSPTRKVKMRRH
UniProt Q8C3P7: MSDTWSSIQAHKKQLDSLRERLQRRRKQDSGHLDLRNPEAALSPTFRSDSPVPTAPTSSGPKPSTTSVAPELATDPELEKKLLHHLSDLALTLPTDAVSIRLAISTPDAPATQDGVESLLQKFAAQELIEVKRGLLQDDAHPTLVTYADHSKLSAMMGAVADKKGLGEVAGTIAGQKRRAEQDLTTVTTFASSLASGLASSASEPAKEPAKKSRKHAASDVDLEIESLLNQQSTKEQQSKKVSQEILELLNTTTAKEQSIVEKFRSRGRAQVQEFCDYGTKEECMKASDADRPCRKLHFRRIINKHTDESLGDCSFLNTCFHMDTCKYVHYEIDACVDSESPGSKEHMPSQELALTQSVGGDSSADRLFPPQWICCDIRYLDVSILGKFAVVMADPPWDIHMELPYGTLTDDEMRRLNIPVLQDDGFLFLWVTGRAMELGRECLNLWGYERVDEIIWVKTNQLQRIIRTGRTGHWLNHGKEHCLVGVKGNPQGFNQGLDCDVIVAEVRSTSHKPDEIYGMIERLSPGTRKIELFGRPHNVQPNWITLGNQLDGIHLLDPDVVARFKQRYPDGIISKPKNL

Results are given in words; binding and its absence hold for the method and conditions named. Binding seen in cells or lysates may run through a third protein.

Turning to ALKBH5 (from UniProt Q3TSG4 1-395), the binding result is “no binding”.
For METTL3 (from UniProt Q8C3P7 1-580), the binding entry is listed as “no binding”.

B1: METTL14 (protein, UniProt Q3UIK4 1-456)
chain: MDSRLQEIRERQKLRRQLLAQQLGAESADSIGAVLNSKDEQREIAETRETCRASYDTSAPNSKRKCLDEGETDEDKVEEYKDELEMQQEEENLPYEEEIYKDSSTFLKGTQSLNPHNDYCQHFVDTGHRPQNFIRDVGLADRFEEYPKLRELIRLKDELIAKSNTPPMYLQADIEAFDIRELTPKFDVILLEPPLEEYYRETGITANEKCWTWDDIMKLEIDEIAAPRSFIFLWCGSGEGLDLGRVCLRKWGYRRCEDICWIKTNKNNPGKTKTLDPKAVFQRTKEHCLMGIKGTVKRSTDGDFIHANVDIDLIITEEPEIGNIEKPVEIFHIIEHFCLGRRRLHLFGRDSTIRPGWLTVGPTLTNSNYNAETYASYFSAPNSYLTGCTEEIERLRPKSPPPKSKSDRGGGAPRGGGRGGTSAGRGRERNRSNFRGERGGFRGGRGGTHRGGFTPR
Turning to B1, the binding entry was “no binding”.

The values above are taken from article doi:10.1101/2020.11.14.382556.
